{
  "sequences": {"note": "The chains behind the UniProt entries cited, without tags or fusion partners. Where a name states a change or a piece, a line headed by the entry shows the natural chain unless it says otherwise.", "UniProt P08473": "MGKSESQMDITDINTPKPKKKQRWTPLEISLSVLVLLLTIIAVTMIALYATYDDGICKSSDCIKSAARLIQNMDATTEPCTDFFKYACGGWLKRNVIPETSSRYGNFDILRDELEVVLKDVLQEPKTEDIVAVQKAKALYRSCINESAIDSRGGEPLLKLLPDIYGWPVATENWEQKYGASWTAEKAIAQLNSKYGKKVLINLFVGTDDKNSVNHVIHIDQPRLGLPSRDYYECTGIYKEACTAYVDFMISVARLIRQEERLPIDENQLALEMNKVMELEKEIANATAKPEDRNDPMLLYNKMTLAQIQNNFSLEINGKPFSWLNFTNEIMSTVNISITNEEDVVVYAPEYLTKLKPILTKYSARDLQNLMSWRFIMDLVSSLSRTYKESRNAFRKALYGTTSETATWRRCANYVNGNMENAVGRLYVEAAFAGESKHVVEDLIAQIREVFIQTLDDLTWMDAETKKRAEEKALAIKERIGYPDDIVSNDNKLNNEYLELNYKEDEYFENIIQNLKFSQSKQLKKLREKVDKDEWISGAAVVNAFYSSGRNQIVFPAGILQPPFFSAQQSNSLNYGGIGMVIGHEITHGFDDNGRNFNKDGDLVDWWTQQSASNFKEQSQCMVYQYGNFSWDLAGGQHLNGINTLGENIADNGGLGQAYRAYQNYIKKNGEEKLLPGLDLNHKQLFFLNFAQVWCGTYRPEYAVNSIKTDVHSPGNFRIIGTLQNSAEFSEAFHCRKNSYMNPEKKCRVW"},
  "source": "patent US6991916B2",
  "about": "“Compounds for the treatment of sexual dysfunction” (Pfizer Inc., priority 2000, dated 2006)",
  "molecular_target": "T1, NEP enzyme (Homo sapiens, UniProt P08473)",
  "T1 construct": "made in house; host or cells: Pichia pastoris",
  "experiment": "NEP FRET assay (384 well, substrate CP4)",
  "format": "biochemical",
  "settings": "steady state kinetics of NEP with the peptide substrate",
  "note": "The name of at least one read-out is uncertain.",
  "data": [
    {"substance": "Rhodamine green-Gly-Gly-dPhe-Leu-Arg-Arg-Val-Cys(QSY™-7)-βAla-NH2 (GGFLRRVCA; D-residues; non-natural residues) [CP4]", "values": [
      {"measurement": "Kcat/Km", "value": "10,500 M^−1 S^−1"}
    ]}
  ]
}
